Measurements from PubChem BioAssay AID1487 (National Center for Advancing Translational Sciences (NCATS), 2009).
The list shows a part of the results. The main result of the screen is listed elsewhere. These columns were measured beside it and carry no call. Most of these compounds were active or inconclusive in the main read-out, so they are no random draw. The note in brackets gives the kind of curve behind each potency; many fits are weak.

Test: qHTS Assay for Modulators of Lamin A Splicing
Settings: HeLa LMNA splicing GFP/RFP minigene ratio, 48 h
Method in brief: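 Read-out is the ratio of GFP to DsRed2 object intensity, acquired by 488 nm laser-scanning cytometry on HeLa lamin A-EGFP minigene reporter cells. Compound incubation 48 hrs at 37 °C in Opti-MEM with 2% FBS; DMSO 0.5% final.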

[1] = measured here: RFP viability control channel
[2] = measured here: GFP splicing reporter channel

SMILES | AC50 [1] | AC50 [2]
Cc1cc(/C=C(\C#N)C(=O)Nc2ccccc2)c(C)n1-c1ccc2c(c1)OCO2 | 5.62 µM [rising, full curve] | –
O=C(Nc1ccccc1C(F)(F)F)c1ccc(CN2CCC(Cc3ccccc3)CC2)cc1 | 7.94 µM [falling, single point] | 11.2 µM [falling, single point]
c1ccc(C2CCCN(Cc3nc(CC4CC4)no3)CC2)cc1 (stereo not given) | 35.5 µM [falling, single point] | –
CCN(CC)c1ccc(/C=N/NC(=O)c2cccc(S(=O)(=O)Nc3ccccc3OC)c2)c(O)c1 | 7.94 µM [rising, partial curve] | 8.91 µM [rising, partial curve, poor fit]
O=c1c(Cc2ccc(Cl)cc2)c(O)ccn1Cc1ccccc1 | 17.8 µM [rising, partial curve, poor fit] | –
O=C(CCN1C(=O)S/C(=C\c2cccs2)C1=O)NC1=NCCS1 | – | 35.5 µM [rising, single point]
O=C(c1ccccc1-c1ccccc1)N1CCN(c2ccccn2)CC1 | 3.55 µM [rising, partial curve, poor fit] | –
O=C(/C=C\c1ccc(-c2ccccc2)o1)c1ccccc1 | 14.1 µM [falling, single point] | 12.6 µM [falling, partial curve]
Cc1ccccc1NS(=O)(=O)c1cc(C(=O)Nc2ccccc2-c2ccccc2)ccc1Cl | 35.5 µM [rising, single point] | –
CCOC(=O)c1c(C)[nH]c(C(=O)COC(=O)C2CC(=O)N(Cc3ccccc3)C2)c1C (stereo not given) | 12.6 µM [falling, partial curve, poor fit] | –
OCC1OC(O)C(O)C(O)C1O (stereo not given) | – | 0.00355 µM [falling, full curve, poor fit]
O=C(CSc1nc2ccccc2o1)Nc1nc(-c2ccccc2)c(-c2ccccc2)s1 | 22.4 µM [rising, single point] | –
CSc1nc(Nc2ccc(C)cc2)c(C#N)c(-c2ccccc2)n1 | – | 2 µM [falling, full curve, poor fit]
c1ccc(COc2ccc(OCCCN3CCCC3)cc2)cc1 | – | 20 µM [rising, partial curve, poor fit]
O=C(CSc1ccc(-c2ccccn2)nn1)Nc1nccs1 | 1.12 µM [falling, full curve, poor fit] | –
CCOc1ccc(C(=O)N2CCC(C(=O)c3ccc4c(c3)OCCO4)CC2)cc1 | 15.8 µM [rising, single point] | –
Cc1ccc(/C=C2/SC(=O)N(CC(=O)N3CCOCC3)C2=O)s1 | 0.355 µM [rising, full curve] | 7.08 µM [rising, partial curve, poor fit]
CCOC(=O)CCC(=O)Nc1ccc([N+](=O)[O-])cc1C | – | 2.82 µM [falling, full curve, poor fit]
O=C(COC(=O)c1ccc(-c2ccc([N+](=O)[O-])cc2)o1)NC(=O)NC12CC3CC(CC(C3)C1)C2 | – | 14.1 µM [rising, single point]

Single values from the entries so far.
In AC50 [1], Cc1ccc(/C=C2/SC(=O)N(CC(=O)N3CCOCC3)C2=O)s1 is entered as 0.355 µM [rising, full curve]
In AC50 [2], CSc1nc(Nc2ccc(C)cc2)c(C#N)c(-c2ccccc2)n1 is entered as 2 µM [falling, full curve, poor fit]

Further entries.

SMILES | AC50 [1] | AC50 [2]
CCN1CCN(c2ncc3c(n2)CCN(Cc2sccc2C)C3)CC1 | 3.55 µM [rising, single point] | –
O=C(Nc1nc(-c2ccc3c(c2)OCO3)cs1)C1COc2ccccc2O1 (stereo not given) | 31.6 µM [rising, single point] | –
COC(=O)c1ccc(NC(=O)CNc2ccccc2)cc1 | 0.316 µM [falling, full curve, poor fit] | –
Clc1ccccc1CSc1nnc(-c2ccco2)c(-c2ccco2)n1 | 17.8 µM [falling, single point] | –
CC1CCN(c2ccc(C(=O)Nc3ccc4c(c3)OCO4)cc2[N+](=O)[O-])CC1 | 28.2 µM [rising, partial curve] | 35.5 µM [rising, single point]
COC(=O)c1ccc(/C=C/C(=O)c2cccc(OC)c2)cc1 | 28.2 µM [falling, single point] | 22.4 µM [falling, single point]
Cc1ccc(/C=N\Nc2cn[nH]c(=O)c2Cl)cc1 | 11.2 µM [falling, partial curve] | 12.6 µM [falling, partial curve]
O=C(Nc1ccc(Br)cc1)C1CCCN1S(=O)(=O)c1cccs1 (stereo not given) | 22.4 µM [rising, single point] | –
O=[N+]([O-])c1cc2oc3c(c2c(C=NCc2ccncc2)c1O)CCCC3 | 35.5 µM [rising, single point] | –
COc1cccc(CNC(=O)c2ccc3c(c2)N(C)C(=O)C2CCCCN32)c1 (stereo not given) | – | 35.5 µM [falling, partial curve]
CCOc1ccc(-c2ncncc2-c2ccc(OC)cc2)c(O)c1 | 10 µM [rising, partial curve, poor fit] | –
O=C(N/N=C1\CC2CC=CC12)c1ccc(COc2ccccc2)cc1 (stereo not given) | 0.0398 µM [falling, full curve, poor fit] | 0.00501 µM [falling, full curve, poor fit]
CC1(C)Cc2ccccc2-c2nc3ccccc3c(=O)n21 | 11.2 µM [rising, partial curve] | 8.91 µM [rising, partial curve]
CCOc1ccc(-c2[nH]ncc2-c2ccc(OC)c(OC)c2)c(O)c1 | 11.2 µM [rising, partial curve] | 35.5 µM [rising, single point]
Cc1ccc(N(CC(=O)NCCSc2ccccn2)S(C)(=O)=O)cc1 | 0.1 µM [falling, full curve] | 1.26 µM [falling, single point]
CCN(CC)S(=O)(=O)c1cc(NC(=O)CCCOc2ccc(C(C)=O)cc2)ccc1C | 12.6 µM [rising, partial curve] | 10 µM [rising, partial curve]
O=c1c2ccccc2nc(/C=C/c2c[nH]c3ccccc23)n1CCO | 22.4 µM [rising, single point] | –
NC(=S)N=Nc1c(O)n(Cc2ccc(Br)cc2)c2ccccc12 | 5.62 µM [rising, single point] | –
Cc1oc2c(c1C(=O)N1CCC(C)CC1)C(=O)c1ccccc1C2=O | 5.62 µM [rising, single point] | –

SMILES | AC50 [1] | AC50 [2]
Cc1ccc(OCC(=O)Nc2ccc3c(c2)nc2n3CCOC2)cc1 | 4.47 µM [rising, full curve, poor fit] | 3.98 µM [rising, full curve, poor fit]
CCCC(=O)Oc1ccccc1C1SCc2cc(C)c(C)cc2CS1 | 20 µM [rising, single point] | 11.2 µM [rising, single point]
CNS(=O)(=O)c1cc(-c2nn3c(C)nnc3c3ccccc23)ccc1C | – | 14.1 µM [falling, single point]
Cc1ccc(C)n1-n1cnc2sc(-c3ccccc3)cc2c1=O | 14.1 µM [rising, single point] | –
O=c1[nH]c(SCc2n[nH]c(=S)n2-c2ccccc2)nc2sc3c(c12)CCC3 | 17.8 µM [rising, single point] | –
CNC(=S)N1C2CCC1CC(NC(=O)NC13CC4CC(CC(C4)C1)C3)C2 (stereo not given) | 0.282 µM [rising, partial curve, poor fit] | –
COc1cc(/C=C(/C#N)c2nc3ccccc3[nH]2)ccc1OCC(=O)Nc1ccccc1C | 4.47 µM [falling, full curve] | 6.31 µM [falling, full curve]
O=C(NCCc1ccc(Cl)cc1)c1ccc(Cn2c(=O)[nH]c3ccccc3c2=O)cc1 | 31.6 µM [falling, single point] | 35.5 µM [falling, single point]
COc1ccc(C=NCC2COc3ccccc3O2)cc1OC (stereo not given) | – | 5.62 µM [rising, single point]
Cc1ccccc1C1CC(c2cccs2)=NN1S(C)(=O)=O (stereo not given) | 22.4 µM [falling, single point] | 35.5 µM [falling, single point]
COc1cccc2sc(Nc3nc(-c4cc5ccccc5oc4=O)cs3)nc12 | 0.0447 µM [rising, full curve, poor fit] | –
Cc1ccc(NC(=O)Nc2nc3ccccc3s2)cc1NC(=O)Nc1nc2ccccc2s1 | 14.1 µM [falling, single point] | –
COC(=O)Cc1cc(=O)[nH]c(/N=C(\N)Nc2ccc(C)cc2)n1 | – | 6.31 µM [rising, single point]
O=C(Nc1ccccc1SCC1CSc2nc3ccccc3c(=O)n21)c1cccc(Cl)c1 (stereo not given) | 6.31 µM [rising, partial curve] | –
COc1cc(-c2nc(-c3ccccc3)c(-c3cc([N+](=O)[O-])ccc3C)[nH]2)cc(OC)c1OC | 15.8 µM [rising, single point] | –
CC1=C(/C=C/C(C)=C/C=C/C(C)=C/C=C/C=C(C)/C=C/C=C(C)/C=C/C2=C(C)CCCC2(C)C)C(C)(C)CCC1 | 35.5 µM [falling, single point] | 3.16 µM [falling, partial curve, poor fit]
CCOc1ccccc1NC(=O)c1cc2cc(C)ccc2n1C | 0.708 µM [rising, full curve] | 0.282 µM [rising, full curve, poor fit]
O=C(/C=C/c1ccc(Br)cc1)NC(=O)c1ccccc1O | 22.4 µM [rising, single point] | –

One compound at a time (already shown). Order of values: AC50 [1] | AC50 [2]
Cc1ccc(NC(=O)Nc2nc3ccccc3s2)cc1NC(=O)Nc1nc2ccccc2s1 reads 14.1 µM [falling, single point] | –
O=C(Nc1ccccc1SCC1CSc2nc3ccccc3c(=O)n21)c1cccc(Cl)c1 (stereo not given) reads 6.31 µM [rising, partial curve] | –
